{"source": "patent US9422359B2", "about": "“GPCR fusion protein containing an N-terminal autonomously folding stable domain, and crystals of the same” (The Board of Trustees of the Leland Stanford Junior …, priority 2011, dated 2016)", "target": "T1, R:G complex (Bos taurus, UniProt P04896)", "T1 construct": "HA signal peptide (N); made in house; host or cells: receptor: Sf9 insect cells (baculovirus); Gs subunits: HighFive insect cells", "assay": "Analytical gel filtration, stability of the R:G complex", "details": "phosphates used at 5 mM", "procedure": "[…]. Nature 2011 469, 175-180). To maintain the high-affinity nucleotide-free state of the complex, apyrase (25 mU/ml, NEB) was added after 90 min to hydrolyze residual GDP released from G ? supon binding to the receptor. GMP resulting from hydrolysis of GDP by apyrase has very poor affinity for the G protein in the complex.\nAt this stage the mixture contains the R:G complex, non-functional Gs, and an excess of β2AR. […] To prevent cysteine bridge-mediated aggregation of R:G complexes, 100 μM TCEP was added to the eluted protein prior to concentrating it with a 50 kDa MWCO Millipore concentrator. Of note, it was discovered later that crystal growth improved at even higher TCEP concentrations (above 1 mM) compared to 100 μM TCEP, and that the integrity of the R:G complex in MNG-3 was stable to 10 mM TCEP as measured by gel filtration analysis (FIG. 21C). […] Peak fractions were pooled (FIG. 17b) and concentrated to approximately 90 mg ml^−1 with a 100 kDa MWCO Viva-spin concentrator and analyzed by SDS-PAGE/Coomassie brilliant blue staining (FIG. 17a) and gel filtration (FIG. 17c). To confirm a pure, homogeneous, and dephosphorylated preparation, the R:G complex was routinely analyzed by ion exchange chromatography (FIG. 17d).", "note": "At least one compound was matched to its structure with a doubt left."}
{"compound": "O=C(O)P(=O)(O)O", "note": "[foscarnet, phosphonoformate]", "values": [{"measurement": "effect on the R:G complex", "result": "do not cause disruption of the complex"}]}
